Laboratory results reported in PubChem BioAssay AID1487 (National Center for Advancing Translational Sciences (NCATS), 2009).
The other results are listed elsewhere or left out. Shown are side measurements of this screen, not its main read-out; they come without a call. Most of these compounds were active or inconclusive in the main read-out, so they are no random draw. Words in brackets tell the shape of the fitted curve; partial curves, single points and poor fits give uncertain potencies.

Assay: qHTS Assay for Modulators of Lamin A Splicing
Conditions: HeLa LMNA splicing GFP/RFP minigene ratio, 48 h
Procedure, shortened: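 S3 HeLa stable clones carrying a lamin A-EGFP splicing minigene plus DsRed2 were seeded at 600 cells/well in Opti-MEM with 2% FBS, pin-dosed and incubated 48 h at 37°C. Acumen cytometry (488 nm) gave the GFP/RFP total-intensity ratio.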

[1] = measured here: GFP splicing reporter channel
[2] = measured here: RFP viability control channel

Structure (SMILES)	AC50 [1]	AC50 [2]
COCc1cc(N2CCCC2)nc(-c2ccccc2)n1	0.00398 µM [falling, full curve, poor fit]	–
N#C/C(=C\c1c[nH]c2ccccc12)c1nnc2n1CCCCC2	–	3.55 µM [rising, partial curve]
Cc1ccc(S(=O)(=O)N(C)C)cc1NC(=O)COC(=O)CCC(=O)c1cccs1	0.282 µM [falling, full curve]	0.126 µM [falling, full curve]
O=C1Nc2ccc(NS(=O)(=O)c3cccs3)c3cccc1c23	–	15.8 µM [rising, single point]
NC(=O)CC[C@@H](N)C(=O)O	35.5 µM [falling, single point]	–
CCN(CC)S(=O)(=O)c1cccc(-c2nnc(SCC(=O)NCCC3=CCCCC3)n2N)c1	10 µM [rising, partial curve, poor fit]	–
Cc1cc(=O)[nH]c(SCC(=O)c2ccc(C(C)C)cc2)n1	17.8 µM [rising, single point]	31.6 µM [rising, single point]
Cc1ccc(NC(=S)NNC(=O)c2c(Cl)c(C)nn2C)cc1	35.5 µM [rising, single point]	25.1 µM [rising, single point]
O=C(CS(=O)(=O)c1c[nH]c2ccccc12)N1CCCCCC1	5.62 µM [rising, single point]	–
CCCC(=O)OCCNc1cc(SCCC(=O)OC)c2nonc2c1[N+](=O)[O-]	–	31.6 µM [rising, single point]
COc1ccccc1N1CCN(C(=O)c2c(-c3ccccc3)noc2C)CC1	1.78 µM [falling, single point]	35.5 µM [rising, single point]
CC(C)C(=O)NC(c1ccco1)c1ccc2cccnc2c1O (configuration not stated)	6.31 µM [rising, partial curve]	8.91 µM [rising, partial curve]
CC(=O)N1CCCc2cc(S(=O)(=O)N(C)CC(=O)Nc3ccc(F)cc3Cl)ccc21	–	0.251 µM [falling, full curve]
CCCCOC(=O)NS(=O)(=O)c1sc(CC(C)C)cc1-c1ccc(Cn2c(CC)nc3c(C)cc(C)nc32)cc1	20 µM [falling, partial curve]	15.8 µM [falling, partial curve]
COc1ccccc1N1CCN(C(CNC(=O)c2ccco2)c2cccnc2)CC1 (configuration not stated)	–	10 µM [rising, partial curve]
CCOc1ccc(C(=O)Nc2ccc(N3CCN(C(C)=O)CC3)cc2)cc1[N+](=O)[O-]	0.00501 µM [falling, full curve, poor fit]	–

Single records (already shown):
O=C(CS(=O)(=O)c1c[nH]c2ccccc12)N1CCCCCC1 is listed as AC50 [1]: 5.62 µM [rising, single point]
NC(=O)CC[C@@H](N)C(=O)O is listed as AC50 [1]: 35.5 µM [falling, single point]
